{
  "sequences": {"note": "The chains behind the UniProt entries cited, without tags or fusion partners.", "UniProt Q0JBA9, entry or part of it": "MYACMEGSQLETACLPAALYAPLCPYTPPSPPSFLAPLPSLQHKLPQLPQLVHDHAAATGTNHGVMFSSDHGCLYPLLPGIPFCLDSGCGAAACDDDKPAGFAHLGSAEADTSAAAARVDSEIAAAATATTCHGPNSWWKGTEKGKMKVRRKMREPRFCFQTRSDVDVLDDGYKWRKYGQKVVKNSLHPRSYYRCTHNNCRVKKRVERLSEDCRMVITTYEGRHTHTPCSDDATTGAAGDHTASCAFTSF"},
  "source": "paper PMC7819943",
  "about": "“Rice protein-binding microarrays: a tool to detect cis-acting elements near promoter regions in rice”",
  "note": "The list shows a part of the results.",
  "data": [
    {"biological_target": "OsWRKY34 (Oryza sativa, UniProt Q0JBA9 1-250)", "assay": "protein-binding microarray (RPBM); PBS, 2% BSA, 51.3 ng/ul salmon testes DNA, 50 uM zinc acetate, 200 nM TF, 25 C, 1 h; high values mean tight binding", "conditions": "protein: recombinant; tags: N-terminal polyhistidine and DsRed monomer fusion (pET32a); label: CyDye5-dUTP incorporated in the synthesized complementary strand; 3' TTTTT single-stranded linker to array surface; dsDNA, one strand shown", "how_it_was_run": "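Transcription factors were made in E. coli BL21-CodonPlus as N-terminal fusions to a polyhistidine tag and DsRed, then purified on Ni–NTA. After primer extension with Cy5-dUTP and blocking with 2% BSA, a custom Agilent array was exposed for 1 h at 25 °C to 200 nM protein in PBS, 2% BSA, salmon testes DNA and 50 µM zinc acetate. Washed arrays were scanned on an Axon 4000B, and the binding signal is per-feature fluorescence intensity in arbitrary units.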", "values": [
      {"sequence": "GATGAACTTATTCCTTTTCTTTTCTCGTGAGGCCTAGCAACGGAGTCACCTAGTGCAG", "binding signal": "10100 fluorescence intensity (a.u.)"},
      {"sequence": "CCTAGTTTCCTTCTCTTTCCTCATTTATCACTTGCTACATCGGAGTCACCTAGTGCAG", "binding signal": "10900 fluorescence intensity (a.u.)"},
      {"sequence": "TTTGCGTCCTGCAGCTCTCTCTCATCACAGTTTCGCAATGCGGAGTCACCTAGTGCAG", "binding signal": "9860 fluorescence intensity (a.u.)"},
      {"sequence": "CAACCCTTCTTGCCTTAATCTACACTCTCATTATATTTAACGGAGTCACCTAGTGCAG", "binding signal": "8740 fluorescence intensity (a.u.)"},
      {"sequence": "TACAATCATTGTTCTCCTCAGACTCGCCGCCAACCAATTTCGGAGTCACCTAGTGCAG", "binding signal": "9630 fluorescence intensity (a.u.)"},
      {"sequence": "ACCTTGCCCTGGGACTGCACCTTCACCTTCTCCTTCTCCACGGAGTCACCTAGTGCAG", "binding signal": "8040 fluorescence intensity (a.u.)"},
      {"sequence": "AATAGTTGTCTCTTCATATTTACTGCAACACTCATATTAACGGAGTCACCTAGTGCAG", "binding signal": "8200 fluorescence intensity (a.u.)"},
      {"sequence": "AAACCTTTTGTGCGTGCATCTCGTCTGGCATTTGTCTCTCCGGAGTCACCTAGTGCAG", "binding signal": "8200 fluorescence intensity (a.u.)"},
      {"sequence": "CTCATCATTCCTAACCATTTTCTCAGCCACCCATCTATCTCGGAGTCACCTAGTGCAG", "binding signal": "9040 fluorescence intensity (a.u.)"},
      {"sequence": "TTTGTTTTGTTATTACACTAGTTTAATACTCGCTCCATACCGGAGTCACCTAGTGCAG", "binding signal": "8860 fluorescence intensity (a.u.)"},
      {"sequence": "CCTCCTAGGCTACACCTCACCCTCCCTCTCTGATACACATCGGAGTCACCTAGTGCAG", "binding signal": "8550 fluorescence intensity (a.u.)"},
      {"sequence": "GCCTGTCTTGAACATTTCCTTGTTCTCCGTCCTTGAGCACCGGAGTCACCTAGTGCAG", "binding signal": "10700 fluorescence intensity (a.u.)"},
      {"sequence": "GCCACGTGGCACCCGCCCATTGCTCGTCCACCTCACATCTCGGAGTCACCTAGTGCAG", "binding signal": "8030 fluorescence intensity (a.u.)"},
      {"sequence": "AACTCTCGGCCTTAGCTCCTACCGTCACTCCCACGTGTGCCGGAGTCACCTAGTGCAG", "binding signal": "8450 fluorescence intensity (a.u.)"},
      {"sequence": "TTTGCTTTTGTTTCCAAGTCTGTTTCCTGTAATCTCATTGCGGAGTCACCTAGTGCAG", "binding signal": "9930 fluorescence intensity (a.u.)"},
      {"sequence": "ACACGACCAACCCTGCATCCATTGGCTCCAACCTAGACCTCGGAGTCACCTAGTGCAG", "binding signal": "8610 fluorescence intensity (a.u.)"},
      {"sequence": "TTTCTGCGCTACGTGCTCGCCATGTCGTCCTCGTCACAAACGGAGTCACCTAGTGCAG", "binding signal": "9300 fluorescence intensity (a.u.)"},
      {"sequence": "GTCCGATCACTCGATCATTCGTTGACTTTAACCGTGCTGTCGGAGTCACCTAGTGCAG", "binding signal": "15500 fluorescence intensity (a.u.)"},
      {"sequence": "CTTATTTTCTTTTCTAATTTTAGATTTTATTTTATTATTACGGAGTCACCTAGTGCAG", "binding signal": "8360 fluorescence intensity (a.u.)"},
      {"sequence": "TAGCCATCGACCACATGAACGAGCTTCACACACATATATTCGGAGTCACCTAGTGCAG", "binding signal": "10700 fluorescence intensity (a.u.)"},
      {"sequence": "CGATTTGGGAGCAACGTTGACGATCCGACTACAACCTTACCGGAGTCACCTAGTGCAG", "binding signal": "8320 fluorescence intensity (a.u.)"},
      {"sequence": "ATATTTGCAGTACATATTGTGACATACGACCTCCGTCCTACGGAGTCACCTAGTGCAG", "binding signal": "8690 fluorescence intensity (a.u.)"},
      {"sequence": "TACCCGTGTTCTGTTTTAGTGAAGGATACGAAACATTTTTCGGAGTCACCTAGTGCAG", "binding signal": "8280 fluorescence intensity (a.u.)"},
      {"sequence": "ACCAAGAACTCTCTTCTTTTCTGTCACTTCTCTTCCATTCCGGAGTCACCTAGTGCAG", "binding signal": "11000 fluorescence intensity (a.u.)"},
      {"sequence": "TGATACGTCACATACCTACCTACATCTACATCTGGTTAGCCGGAGTCACCTAGTGCAG", "binding signal": "8950 fluorescence intensity (a.u.)"},
      {"sequence": "CCGCTCGACCATCCGCGCTCTTTACCTGCTATTAATTCGCCGGAGTCACCTAGTGCAG", "binding signal": "9080 fluorescence intensity (a.u.)"},
      {"sequence": "GGGGTTATTTTAGTCCATTGAAGTGGGAAAAATGGTGAAACGGAGTCACCTAGTGCAG", "binding signal": "8660 fluorescence intensity (a.u.)"},
      {"sequence": "CTCCTGCTGACGCGCCCCGTCGCCGCCGCTCGCTTGCCGCCGGAGTCACCTAGTGCAG", "binding signal": "8810 fluorescence intensity (a.u.)"},
      {"sequence": "ATTTACTCATATATTTTTATAATGTATTTGTCTTATGTTACGGAGTCACCTAGTGCAG", "binding signal": "8450 fluorescence intensity (a.u.)"},
      {"sequence": "GCTCTGTGCCTCATCAAGCTCTATCCAAGCTCTCGCCATGCGGAGTCACCTAGTGCAG", "binding signal": "8210 fluorescence intensity (a.u.)"},
      {"sequence": "TTCTGAAATGTTTGCTCGATCAACGTCTGCTGCACGGCTTCGGAGTCACCTAGTGCAG", "binding signal": "8910 fluorescence intensity (a.u.)"},
      {"sequence": "ATCTTTCTATTGTTTGTTCAGTATAGCCAATATGTATAACCGGAGTCACCTAGTGCAG", "binding signal": "8710 fluorescence intensity (a.u.)"},
      {"sequence": "CCAACGAACCAGTTTTTTTTCTCGTTTCGATCTCCCGTCCCGGAGTCACCTAGTGCAG", "binding signal": "8090 fluorescence intensity (a.u.)"},
      {"sequence": "GGCTCTTTGCATGCATGTCAACATTTTTCTCCAACTATTACGGAGTCACCTAGTGCAG", "binding signal": "10400 fluorescence intensity (a.u.)"},
      {"sequence": "CCCAGTCCCAGTGGACTATATCGCGCGTTTTTTGGCGGGGCGGAGTCACCTAGTGCAG", "binding signal": "10700 fluorescence intensity (a.u.)"},
      {"sequence": "GGCATCTTCTCACACTCTAGCTCACAGCTTCGCGGTTTCCCGGAGTCACCTAGTGCAG", "binding signal": "8260 fluorescence intensity (a.u.)"},
      {"sequence": "TTCCTCATCCTCTCACCGCCGCCGCCGCCGCGAGCGATTTCGGAGTCACCTAGTGCAG", "binding signal": "8320 fluorescence intensity (a.u.)"},
      {"sequence": "TTACTGTTGACTTGCAGTTCTGGGCACTTTGTATTTAGTTCGGAGTCACCTAGTGCAG", "binding signal": "10000 fluorescence intensity (a.u.)"},
      {"sequence": "TGGCGAGCACACCACCACCGCATCACCGGTCCACCGCTCTCGGAGTCACCTAGTGCAG", "binding signal": "8100 fluorescence intensity (a.u.)"},
      {"sequence": "AGCCTCACTTCTTGTTGCTTTCAAGCTGTTTACTTACGCTCGGAGTCACCTAGTGCAG", "binding signal": "10700 fluorescence intensity (a.u.)"},
      {"sequence": "AATGCCCGAACACTCCATGCGACACCCTATGTAATAACCGCGGAGTCACCTAGTGCAG", "binding signal": "8350 fluorescence intensity (a.u.)"},
      {"sequence": "AGATTAGTAGTAAAAGGGTAGGGTATTAGTGGCGTGATTACGGAGTCACCTAGTGCAG", "binding signal": "8570 fluorescence intensity (a.u.)"}
    ]}
  ]
}
